From paper PMC10719266
Results are given in words; binding and its absence hold for the method and conditions named. Binding seen in cells or lysates may run through a third protein. Some entries that bind do so weakly or less than the wild type. Sequences can lack the tags named with a protein.

The chains behind the UniProt entries cited, without tags or fusion partners.
UniProt P19474: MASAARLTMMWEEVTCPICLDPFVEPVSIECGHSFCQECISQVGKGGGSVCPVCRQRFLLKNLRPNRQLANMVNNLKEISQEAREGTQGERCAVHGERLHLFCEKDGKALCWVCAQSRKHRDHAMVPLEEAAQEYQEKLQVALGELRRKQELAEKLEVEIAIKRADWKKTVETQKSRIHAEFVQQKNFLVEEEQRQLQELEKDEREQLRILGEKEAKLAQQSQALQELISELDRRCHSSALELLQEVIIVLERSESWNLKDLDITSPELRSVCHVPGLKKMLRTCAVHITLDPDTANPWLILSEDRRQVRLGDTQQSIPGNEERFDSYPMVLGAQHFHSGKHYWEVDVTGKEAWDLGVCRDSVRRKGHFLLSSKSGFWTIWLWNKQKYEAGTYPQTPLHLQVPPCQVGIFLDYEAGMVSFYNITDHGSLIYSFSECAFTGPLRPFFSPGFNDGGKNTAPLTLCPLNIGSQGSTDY

Molecular target: T1, Flag-tagged FOXD1 (human) (UniProt Q16676)
T1 sequence: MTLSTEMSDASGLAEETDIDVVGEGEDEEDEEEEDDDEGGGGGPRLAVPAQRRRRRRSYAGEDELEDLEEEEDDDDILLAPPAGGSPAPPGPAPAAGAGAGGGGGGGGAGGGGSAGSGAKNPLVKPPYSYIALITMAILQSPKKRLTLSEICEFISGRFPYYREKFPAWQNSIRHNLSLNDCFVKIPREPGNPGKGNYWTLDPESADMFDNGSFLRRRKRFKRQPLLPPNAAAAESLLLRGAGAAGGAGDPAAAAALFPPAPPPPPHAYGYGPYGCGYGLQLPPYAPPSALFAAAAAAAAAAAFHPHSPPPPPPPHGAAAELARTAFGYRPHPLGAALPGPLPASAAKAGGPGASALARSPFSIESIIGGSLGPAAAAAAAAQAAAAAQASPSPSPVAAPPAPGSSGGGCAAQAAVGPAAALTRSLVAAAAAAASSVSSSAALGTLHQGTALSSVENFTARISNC
Assay: co-IP; HEK293T cells transfected with differentially tagged FOXD1 and TRIM21; RIPA lysis buffer with protease inhibitor; anti-Flag magnetic beads; 3-4 washes with PBST (0.5% Tween 20, pH 7.5); immunoblotting

binding: binds
Substance: TRIM21-Myc (from UniProt P19474 1-475)
